{
  "source": "paper PMC4654539",
  "molecular_target": "T1, human cytochrome P450c17 fused to a fluorescent protein at the C-terminus (human) (UniProt P05093)",
  "T1 sequence": "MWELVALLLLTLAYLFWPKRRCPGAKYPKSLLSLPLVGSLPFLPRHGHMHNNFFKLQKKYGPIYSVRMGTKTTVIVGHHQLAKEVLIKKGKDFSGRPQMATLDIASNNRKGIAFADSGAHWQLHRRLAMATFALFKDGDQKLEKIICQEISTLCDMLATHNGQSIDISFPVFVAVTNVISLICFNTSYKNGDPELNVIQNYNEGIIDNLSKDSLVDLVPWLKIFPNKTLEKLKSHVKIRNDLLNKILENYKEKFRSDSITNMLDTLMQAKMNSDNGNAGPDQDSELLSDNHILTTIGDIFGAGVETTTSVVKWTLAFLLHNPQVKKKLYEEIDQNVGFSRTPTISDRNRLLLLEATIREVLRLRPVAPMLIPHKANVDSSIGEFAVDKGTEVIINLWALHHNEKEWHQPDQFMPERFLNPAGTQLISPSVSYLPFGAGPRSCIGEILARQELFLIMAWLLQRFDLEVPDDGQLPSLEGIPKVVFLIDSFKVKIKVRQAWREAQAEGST",
  "assay": "FRET or BRET; living HEK293 or H295 cells co-transfected with CFP and YFP fusion constructs; FRET ratio from the enhanced acceptor emission, a ratio >1.0 indicates close association",
  "note": "Results are given in words; binding and its absence hold for the method and conditions named. Binding seen in cells or lysates may run through a third protein. A result given as binding can be weak or reduced; the word gives no strength. Where a sequence is shown, tags or fusion partners need not be part of it.",
  "data": [
    {"substance": "NADPH-cytochrome P450 oxido-reductase fused to a fluorescent protein at the C-terminus (enzyme)", "values": [
      {"measurement": "binding", "result": "binds"}
    ]}
  ]
}
